PubChem BioAssay AID2685 (National Center for Advancing Translational Sciences (NCATS), 2010)
The other results are listed elsewhere or left out. Further columns of the screen follow, without active or inactive calls. The list favours compounds with an active or inconclusive main result. The note in brackets gives the kind of curve behind each potency; many fits are weak.

Test: qHTS Assay for Lipid Storage Modulators in Drosophila S3 Cells;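 as to cell number change: cells counted by Cell Tracker Red CMTPX staining in the red channel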
Conditions: BODIPY lipid droplet fluorescence, 18-24 h; for cell number change: measured here: cell count max response, cells fed with added oleic acid
Method in brief: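 Drosophila S3 cells got compounds at several concentrations plus oleic acid (400 uM solution). Laser-scanning cytometry with 488 nm excitation read lipid droplets at 500-530 nm and cells at 575-640 nm. Percent activity was relative to 20 uM Triacsin C.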

[1] = measured here: lipid fluorescence (Fed channel) AC50, cells fed with added oleic acid
[2] = measured here: cell number channel AC50, cells fed with added oleic acid

Row | Structure (SMILES) | AC50 [1] | cell number change | AC50 [2]
1 | CC/C(O)=C1\C(=O)CC(c2ccccc2)CC1=NC(C)C (stereo unspecified) | 10.3 µM [rising, partial curve] | – | –
2 | Cc1cc(C)c(S(=O)(=O)N2CCN(CCN3C(=O)c4cccc5cccc(c45)C3=O)CC2)cc1[N+](=O)[O-] | 23.1 µM [rising, single point] | 41.6% | 23.1 µM [rising, single point]
3 | COc1ccc2nc(C)cc(Sc3nc4ccccc4s3)c2c1 | – | – | 0.00461 µM [rising, full curve, poor fit]
4 | O=C(CSCc1c(F)cccc1Cl)NCc1cccnc1 | – | 3.65% | –
5 | N=c1c[n+](-c2ccc(Cl)cc2)[n-]o1 | 23.1 µM [rising, single point] | -0.342% | –
6 | CC(Oc1cc2oc(=O)c3c(c2cc1Cl)CCC3)C(=O)NCc1cccnc1 (stereo unspecified) | 14.6 µM [falling, partial curve, poor fit] | -34.4% | 29.1 µM [falling, single point]
7 | CCOc1ccc(NC(=O)CN(C2CCCCC2)S(C)(=O)=O)cc1 | 2.31 µM [rising, partial curve] | 7.96% | –
8 | CCOC(=O)C1CCN(C(=O)COC(=O)CNC(=O)c2ccc(OC)cc2)CC1 | 6.51 µM [rising, partial curve] | 25.3% | 6.51 µM [rising, single point]
9 | CC(C)(C)CC(C)(C)NC(=O)CSCC(=O)Nc1ccc2ccccc2c1 | 1.46 µM [falling, full curve, poor fit] | -78.3% | 8.2 µM [falling, partial curve]
10 | O=C1CC(CCC(=O)NC2CC2)c2ccccc2N1 (stereo unspecified) | 0.0651 µM [rising, full curve, poor fit] | 1.49% | –
11 | CC1=NN(c2nc(-c3ccc(Cl)cc3)cs2)C(=O)C1 | – | -33.1% | 1.46 µM [falling, full curve, poor fit]
12 | CC(=O)c1ccc(Sc2nnc(C)s2)c([N+](=O)[O-])c1 | 8.2 µM [falling, partial curve, poor fit] | -14.7% | –
13 | CCOc1ccccc1-n1c(SCC(=O)N(CC)CC)nnc1-c1ccccn1 | 0.146 µM [falling, full curve, poor fit] | -5.01% | 0.164 µM [falling, full curve, poor fit]
14 | CSc1cccc(NC(=O)COc2ccccc2C)c1 | – | 4.07% | –
15 | CCOC(=O)C(C)Oc1cccc2c(=O)n(CC(=O)N3CCN(C(=O)OCC)CC3)ccc12 (stereo unspecified) | 2.91 µM [rising, full curve] | -6.59% | –
16 | Cc1cc(C)cc(NC(=O)c2ccc(NC3=NC4CS(=O)(=O)CC4S3)cc2)c1 (stereo unspecified) | 6.51 µM [rising, single point] | 13.3% | –
17 | CCN(CC)S(=O)(=O)c1ccc(NC(=S)NC(=O)C(C)C)cc1 | 0.00461 µM [falling, full curve, poor fit] | -16.2% | –
18 | C=CCN=C1CCCc2c1[nH]c1ccc(C)cc21 | – | -38.5% | –
19 | CC(C)CN(C(=O)COC(=O)Cc1ccc(Cl)cc1)c1c(N)n(Cc2ccccc2)c(=O)[nH]c1=O | – | -76.1% | 16.4 µM [falling, partial curve]

Entries of single compounds from above:
`CC1=NN(c2nc(-c3ccc(Cl)cc3)cs2)C(=O)C1` reads cell number change: -33.1%; AC50 [2]: 1.46 µM [falling, full curve, poor fit]
`O=C(CSCc1c(F)cccc1Cl)NCc1cccnc1` reads cell number change: 3.65%

Next records.

Row | Structure (SMILES) | AC50 [1] | cell number change | AC50 [2]
20 | CCOC(=O)c1cnc(SCc2nc(N)nc(Nc3ccc(OC)cc3)n2)nc1N | – | 133% | 1.64 µM [rising, full curve]
21 | O=C(NCCC1=CCCCC1)C(=O)NCc1ccccc1Cl | 6.51 µM [falling, single point] | -0.919% | –
22 | COc1cc(OC)cc(C(=O)NCC(=O)NCCN2C(=O)S/C(=C\c3ccccc3Cl)C2=O)c1 | 2.31 µM [rising, partial curve] | 22.5% | –
23 | CCC(C)(C(=O)NC1CCCC1)N(C(C)=O)c1ccc(C)cc1 (stereo unspecified) | 25.9 µM [falling, partial curve] | -30% | –
24 | CCOc1ccc(S(=O)(=O)Nc2cccc(OC)c2)cc1 | – | 72.2% | 3.66 µM [rising, full curve]
25 | O=C(NCc1cccs1)c1nc2c(nnn2Cc2ccccc2Cl)c(=O)[nH]1 | 8.2 µM [falling, partial curve] | -15.4% | –
26 | O=C(COC(=O)CCC(=O)Nc1nccs1)NCc1ccco1 | – | -30.9% | 29.1 µM [falling, partial curve, poor fit]
27 | CN(CC(=O)NCc1ccc(F)cc1)S(=O)(=O)c1ccc2c(c1)n(C)c(=O)c(=O)n2C | 6.51 µM [falling, single point] | -7.31% | –
28 | Cc1ccoc1C(=O)NCc1occc1C(=O)O | 0.82 µM [falling, full curve] | -6.04% | 0.00517 µM [falling, full curve, poor fit]
29 | O=C(Cc1ccc(Cl)cc1)NC(=S)Nc1ccccc1O | 14.6 µM [rising, partial curve] | -1.38% | –
30 | Cc1cc(C)n2nc(C(=O)Nc3cccc(S(=O)(=O)N4CCOCC4)c3)nc2n1 | 0.116 µM [falling, full curve, poor fit] | -32.1% | 23.1 µM [falling, partial curve, poor fit]
31 | COc1ccc(NC(=O)CSc2nnc(-c3cccc(O)c3)o2)cc1 | 6.51 µM [rising, single point] | 3.04% | –
32 | O=S(=O)(c1ccccc1)N1CCCc2ccccc21 | 2.59 µM [rising, partial curve, poor fit] | 6.74% | –
33 | O=C(Nc1ccccc1)C1COc2ccccc2O1 (stereo unspecified) | – | 13.6% | –
34 | COc1ccccc1C(=O)Nc1ccc(OCC(=O)N2CCCCC2)cc1 | 23.1 µM [falling, partial curve, poor fit] | -1.23% | 6.51 µM [falling, single point]
35 | Cn1c(N2CCCC2)nc2c1c(=O)n(Cc1ccc(Cl)cc1)c(=O)n2C | 20.6 µM [falling, single point] | -29.8% | –
36 | Cn1c(COc2ccc(Cl)cc2)nnc1SCC(=O)NC1CC1 | 0.092 µM [falling, partial curve, poor fit] | 27.5% | –
37 | COc1ccc(/C=c2/sc3n(c2=O)NC2(c4ccccc4)N(C)C(=O)N(C)C2(c2ccccc2)N=3)cc1 (stereo unspecified) | – | -24.2% | 0.0082 µM [falling, full curve, poor fit]
